Assay results reported in PMC2652110.
These are yes or no findings as the source states them, for the method shown. Binding seen in cells or lysates may run through a third protein. Some binding calls cover weakened binding; strength is not graded here.

Sequences of proteins named here, by UniProt entry; tags and fusion partners are left off.
UniProt Q13489: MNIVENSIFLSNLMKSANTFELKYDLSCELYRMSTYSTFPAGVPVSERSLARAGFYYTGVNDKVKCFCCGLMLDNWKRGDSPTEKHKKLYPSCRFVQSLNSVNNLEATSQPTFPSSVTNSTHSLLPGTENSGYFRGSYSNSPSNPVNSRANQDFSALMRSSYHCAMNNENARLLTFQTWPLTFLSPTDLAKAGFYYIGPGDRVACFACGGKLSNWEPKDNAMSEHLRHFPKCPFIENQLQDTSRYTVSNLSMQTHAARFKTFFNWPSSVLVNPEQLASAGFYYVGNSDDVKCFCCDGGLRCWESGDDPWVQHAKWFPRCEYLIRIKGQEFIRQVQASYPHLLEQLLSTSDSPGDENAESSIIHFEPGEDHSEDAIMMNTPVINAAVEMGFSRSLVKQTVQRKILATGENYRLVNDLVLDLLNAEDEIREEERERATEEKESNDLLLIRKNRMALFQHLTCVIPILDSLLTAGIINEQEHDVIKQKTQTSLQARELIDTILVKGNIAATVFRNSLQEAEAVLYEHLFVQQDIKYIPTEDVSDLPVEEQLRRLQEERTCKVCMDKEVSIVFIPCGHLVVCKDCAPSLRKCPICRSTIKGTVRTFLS
UniProt Q9UDY8: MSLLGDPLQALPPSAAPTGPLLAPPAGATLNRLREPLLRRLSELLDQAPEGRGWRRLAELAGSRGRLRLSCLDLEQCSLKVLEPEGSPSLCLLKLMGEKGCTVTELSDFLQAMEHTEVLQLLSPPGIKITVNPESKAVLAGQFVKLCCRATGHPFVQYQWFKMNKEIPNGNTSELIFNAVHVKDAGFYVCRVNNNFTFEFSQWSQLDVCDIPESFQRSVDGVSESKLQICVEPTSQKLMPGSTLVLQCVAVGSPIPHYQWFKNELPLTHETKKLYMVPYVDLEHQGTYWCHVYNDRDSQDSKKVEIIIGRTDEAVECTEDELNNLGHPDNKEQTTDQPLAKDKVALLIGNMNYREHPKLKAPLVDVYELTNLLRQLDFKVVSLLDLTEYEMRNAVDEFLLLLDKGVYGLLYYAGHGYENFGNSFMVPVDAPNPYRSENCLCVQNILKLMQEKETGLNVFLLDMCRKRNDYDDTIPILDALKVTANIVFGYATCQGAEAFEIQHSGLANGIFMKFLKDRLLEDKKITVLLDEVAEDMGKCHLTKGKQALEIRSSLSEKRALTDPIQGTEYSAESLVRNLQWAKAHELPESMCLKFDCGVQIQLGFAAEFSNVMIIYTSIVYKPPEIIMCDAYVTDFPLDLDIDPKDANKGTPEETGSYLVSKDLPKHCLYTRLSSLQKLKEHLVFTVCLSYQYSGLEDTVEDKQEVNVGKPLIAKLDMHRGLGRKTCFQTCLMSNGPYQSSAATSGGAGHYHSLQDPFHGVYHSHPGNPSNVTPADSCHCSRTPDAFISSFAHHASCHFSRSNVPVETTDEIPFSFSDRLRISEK

Tests used:
[1] = biological target: API2, full-length, Flag-bio-tagged (UniProt Q13489); assay: pull-down; biotin-immunoprecipitation (bio-IP): Flag-bio-tagged bait transiently expressed in HEK-293T with BirA (in Fig 3A together with HA-Ub), non-denaturing NDLB lysate, captured on streptavidin-coated paramagnetic beads; immunoblot for endogenous BCL10 and TRAF6
MALT1, Flag-bio-tagged = MALT1, Flag-bio-tagged (UniProt Q9UDY8); assay: as above

binding [1]: no binding
binding (MALT1, Flag-bio-tagged): binds
B1: BCL10, endogenous in HEK-293T (protein, UniProt O95999 1-233)
chain: MEPTAPSLTEEDLTEVKKDALENLRVYLCEKIIAERHFDHLRAKKILSREDTEEISCRTSSRKRAGKLLDYLQENPKGLDTLVESIRREKTQNFLIQKITDEVLKLRNIKLEHLKGLKCSSCEPFPDGATNNLSRSNSDESNFSEKLRASTVMYHPEGESSTTPFFSTNSSLNLPVLEVGRTENTIFSSTTLPRPGDPGAPPLPPDLQLEEEGTCANSSEMFLPLRSRTVSRQ
